From PMC4728560, “TCTP contains a BH3-like domain, which instead of inhibiting, activates Bcl-xL” (Scientific Reports, 2016)
No constants are given. Whether binding was seen depends on the method and setting. For some of these results: Binding can be weak; no strength is given. Values belong to the binder of their own block, whether it stands above or below them.

Protein sequences, listed by entry. Tags and fused reporters are not part of them. Lines headed by an entry give the natural chain unless they say otherwise; changes in a name come on top.
UniProt Q07817: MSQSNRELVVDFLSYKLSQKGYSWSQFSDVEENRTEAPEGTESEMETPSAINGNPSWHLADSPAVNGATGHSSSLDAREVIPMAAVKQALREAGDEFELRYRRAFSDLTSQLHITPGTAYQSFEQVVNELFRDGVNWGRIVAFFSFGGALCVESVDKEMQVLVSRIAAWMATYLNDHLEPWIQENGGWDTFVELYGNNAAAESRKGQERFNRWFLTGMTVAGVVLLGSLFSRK

Assays:
[1] = target: Bcl-xL, recombinant protein (human) (UniProt Q07817); experiment: ITC; peptide titrated into Bcl-xL in the cell; 30 °C, 50 mM ammonium bicarbonate pH 9; ITC200 calorimeter; both purified
[2] = target: Bcl-xL, recombinant protein (human) (UniProt Q07817); experiment: SEC + SEC-MALS + native MS; proteins mixed at 100 μM, dialyzed against 10 mM CHES pH 9, 50 mM NaCl, 1 mM DTT or TCEP, heated overnight at 30 °C; S200 gel filtration, SEC-MALS, nanoESI-MS in 50 mM ammonium acetate pH 9.0; the text speaks only of 'biochemical and biophysical studies' (Supplementary Figs 1–6); both purified
[3] = target: Bcl-xL, recombinant protein (human) (UniProt Q07817); experiment: SEC + SEC-MALS + native MS; as a1, with the BH3 mimetic ABT-737; which method showed it is not told in the main text (Supplementary Figs 1–6); both purified
[4] = target: Bcl-xL-Y101K mutant (human) (UniProt Q07817); experiment: condition: proteins mixed at 100 μM (when not specified); SEC + SEC-MALS + native MS; proteins mixed at 100 μM, dialyzed against 10 mM CHES pH 9, 50 mM NaCl, 1 mM DTT or TCEP, heated overnight at 30 °C; S200 gel filtration, SEC-MALS, nanoESI-MS in 50 mM ammonium acetate pH 9.0; the text speaks only of 'biochemical and biophysical studies' (Supplementary Figs 1–6); both purified
[5] = target: Bcl-xL, recombinant protein (human) (UniProt Q07817); experiment: as above
[6] = target: Bcl-xL-Y101K mutant (human) (UniProt Q07817); experiment: ITC; peptide titrated into Bcl-xL in the cell; 30 °C, 50 mM ammonium bicarbonate pH 9; ITC200 calorimeter; both purified
[7] = target: Bcl-xL deletion variant (Bcl-xLΔ27–81ΔTM) (human) (UniProt Q07817); experiment: crystal structure; 300 μM Bcl-xL (Δ27–81ΔCT) + 1 mM TCTP11–31 in 50 mM ammonium bicarbonate pH 9.3; sitting drop, 20 °C; 2.1 Å; both purified

Binder: DEMFSDIYKIAEIADGLCLEV (peptide, UniProt P13693 11-31) [TCTP_(11–31)-R21A peptide]
binding [1]: no binding (tested: Bcl-xL 0.065 mM, TCTP-BH3-R21A 1.26 mM)

binding [2]: binds
binding [3]: no binding (only with ABT-737)
binding [4]: no binding
B1: Translationally Controlled Tumor Protein (TCTP), full-length recombinant protein (protein, UniProt P13693 1-172)
chain: MIIYRDLISHDEMFSDIYKIREIADGLCLEVEGKMVSRTEGNIDDSLIGGNASAEGPEGEGTESTVITGVDIVMNHHLQETSFTKEAYKKYIKDYMKSIKGKLEEQRPERVKPFMTGAAEQIKHILANFKNYQFFIGENMNPDGMVALLDYREDGVTPYMIFFKDGLEMEKC

binding [5]: no binding
B2: full-length TCTP-R21A N-terminal mutant (protein, UniProt P13693 1-172)
chain: MIIYRDLISHDEMFSDIYKIAEIADGLCLEVEGKMVSRTEGNIDDSLIGGNASAEGPEGEGTESTVITGVDIVMNHHLQETSFTKEAYKKYIKDYMKSIKGKLEEQRPERVKPFMTGAAEQIKHILANFKNYQFFIGENMNPDGMVALLDYREDGVTPYMIFFKDGLEMEKC

binding [7]: binds
Binder: DEMFSDIYKIREIADGLCLEV (peptide, UniProt P13693 11-31) [TCTP_(11–31) peptide]
binding [6]: no binding (tested: Bcl-xL-Y101K 0.072 mM, TCTP-BH3 0.955 mM)
